According to PMC13100048:
No constants are given. Whether binding was seen depends on the method and setting. In cells and extracts the contact can be indirect. Some binding calls cover weakened binding; strength is not graded here. Where a sequence is shown, tags or fusion partners need not be part of it.

Target: T1, Major Vault Protein A (endogenous, in vault particles) (D. discoideum (endogenous in Ax2-214 derived cells)) (UniProt P34118)
T1 sequence: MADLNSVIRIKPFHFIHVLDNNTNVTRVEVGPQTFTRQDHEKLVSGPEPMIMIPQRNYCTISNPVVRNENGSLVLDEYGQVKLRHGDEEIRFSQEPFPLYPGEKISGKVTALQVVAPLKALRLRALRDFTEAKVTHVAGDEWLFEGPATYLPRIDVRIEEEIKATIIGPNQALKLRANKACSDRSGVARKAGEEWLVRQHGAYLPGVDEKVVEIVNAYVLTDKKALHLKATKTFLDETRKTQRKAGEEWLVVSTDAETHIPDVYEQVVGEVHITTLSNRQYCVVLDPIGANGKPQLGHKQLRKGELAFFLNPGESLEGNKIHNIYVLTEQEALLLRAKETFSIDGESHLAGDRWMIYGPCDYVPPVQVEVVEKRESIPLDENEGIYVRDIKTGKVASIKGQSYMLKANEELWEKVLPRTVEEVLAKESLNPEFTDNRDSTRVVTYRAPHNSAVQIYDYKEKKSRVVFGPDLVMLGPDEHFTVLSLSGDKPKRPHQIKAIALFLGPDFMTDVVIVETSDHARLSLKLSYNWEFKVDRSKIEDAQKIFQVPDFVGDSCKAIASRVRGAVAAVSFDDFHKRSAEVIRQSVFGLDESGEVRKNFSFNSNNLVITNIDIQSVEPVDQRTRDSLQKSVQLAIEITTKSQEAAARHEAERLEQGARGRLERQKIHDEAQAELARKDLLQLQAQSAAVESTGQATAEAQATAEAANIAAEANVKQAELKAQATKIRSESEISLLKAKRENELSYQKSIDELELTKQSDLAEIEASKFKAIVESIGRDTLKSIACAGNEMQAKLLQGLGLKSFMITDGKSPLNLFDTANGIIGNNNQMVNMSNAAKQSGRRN
Experiment: SEC + co-sedimentation; subcellular fractionation in combination with size exclusion chromatography of D. discoideum cells expressing MVPA-TurboID; details in Supplementary Fig. 2 and Supplementary Methods

B1: MVPA-TurboID fusion protein (D. discoideum Major Vault Protein A fused to the TurboID biotin ligase) (protein, UniProt P34118 1-843)
chain: MADLNSVIRIKPFHFIHVLDNNTNVTRVEVGPQTFTRQDHEKLVSGPEPMIMIPQRNYCTISNPVVRNENGSLVLDEYGQVKLRHGDEEIRFSQEPFPLYPGEKISGKVTALQVVAPLKALRLRALRDFTEAKVTHVAGDEWLFEGPATYLPRIDVRIEEEIKATIIGPNQALKLRANKACSDRSGVARKAGEEWLVRQHGAYLPGVDEKVVEIVNAYVLTDKKALHLKATKTFLDETRKTQRKAGEEWLVVSTDAETHIPDVYEQVVGEVHITTLSNRQYCVVLDPIGANGKPQLGHKQLRKGELAFFLNPGESLEGNKIHNIYVLTEQEALLLRAKETFSIDGESHLAGDRWMIYGPCDYVPPVQVEVVEKRESIPLDENEGIYVRDIKTGKVASIKGQSYMLKANEELWEKVLPRTVEEVLAKESLNPEFTDNRDSTRVVTYRAPHNSAVQIYDYKEKKSRVVFGPDLVMLGPDEHFTVLSLSGDKPKRPHQIKAIALFLGPDFMTDVVIVETSDHARLSLKLSYNWEFKVDRSKIEDAQKIFQVPDFVGDSCKAIASRVRGAVAAVSFDDFHKRSAEVIRQSVFGLDESGEVRKNFSFNSNNLVITNIDIQSVEPVDQRTRDSLQKSVQLAIEITTKSQEAAARHEAERLEQGARGRLERQKIHDEAQAELARKDLLQLQAQSAAVESTGQATAEAQATAEAANIAAEANVKQAELKAQATKIRSESEISLLKAKRENELSYQKSIDELELTKQSDLAEIEASKFKAIVESIGRDTLKSIACAGNEMQAKLLQGLGLKSFMITDGKSPLNLFDTANGIIGNNNQMVNMSNAAKQSGRRN
  binding: binds
